In article PMC11009412, “Pathogenic mutations of human phosphorylation sites affect protein–protein interactions” (Nature Communications, 2024):
Results are given in words; binding and its absence hold for the method and conditions named. In cells and extracts the contact can be indirect. These calls come from enrichment with a bait or labelling near it, and not all partners need be listed. For some assays here: A no says only that the protein was not detected with the bait. For some assays here: Sequences can lack the tags named with a protein.

T1: GATAD1 pS102 peptide, position -5 to alanine (alanine scanning) (human) (UniProt Q8WUU5)
T1 sequence (peptide, phosphoserine at 102): LRATKYKSAPAAEKK

T2: GATAD1 pS102 peptide, position +5 to alanine (alanine scanning) (human) (UniProt Q8WUU5)
T2 sequence (peptide, phosphoserine at 102): LRNTKYKSAPAAAKK

T3: GATAD1 pS102 peptide, position -2 to alanine (alanine scanning) (human) (UniProt Q8WUU5)
T3 sequence (peptide, phosphoserine at 102): LRNTKAKSAPAAEKK

T4: GATAD1 pS102 peptide, position +4 alanine to glycine (alanine scanning) (human) (UniProt Q8WUU5)
T4 sequence (peptide, phosphoserine at 102): LRNTKYKSAPAGEKK

T5: GATAD1 aspartic acid mutant (S102D) peptide on cellulose membrane (alanine scanning) (human) (UniProt Q8WUU5)
T5 sequence (peptide): LRNTKYKDAPAAEKK

T6: GATAD1 S102P peptide on cellulose membrane (PRISMA) (human) (UniProt Q8WUU5)
T6 sequence (peptide): LRNTKYKPAPAAEKK

T7: GATAD1 pS102 peptide, position +3 alanine to glycine (alanine scanning) (human) (UniProt Q8WUU5)
T7 sequence (peptide, phosphoserine at 102): LRNTKYKSAPGAEKK

T8: GATAD1 pS102 peptide, position -3 to alanine (alanine scanning) (human) (UniProt Q8WUU5)
T8 sequence (peptide, phosphoserine at 102): LRNTAYKSAPAAEKK

T9: GATAD1 pS102 peptide, position -1 to alanine (alanine scanning) (human) (UniProt Q8WUU5)
T9 sequence (peptide, phosphoserine at 102): LRNTKYASAPAAEKK

T10: GATAD1 pS102 peptide, proline in position +2 to alanine (alanine scanning) (human) (UniProt Q8WUU5)
T10 sequence (peptide, phosphoserine at 102): LRNTKYKSAAAAEKK

T11: GATAD1 pS102 peptide, position -4 to alanine (alanine scanning) (human) (UniProt Q8WUU5)
T11 sequence (peptide, phosphoserine at 102): LRNAKYKSAPAAEKK

T12: BirA*-FLAG-GATAD1 S102A (human) (UniProt Q8WUU5)
T12 sequence: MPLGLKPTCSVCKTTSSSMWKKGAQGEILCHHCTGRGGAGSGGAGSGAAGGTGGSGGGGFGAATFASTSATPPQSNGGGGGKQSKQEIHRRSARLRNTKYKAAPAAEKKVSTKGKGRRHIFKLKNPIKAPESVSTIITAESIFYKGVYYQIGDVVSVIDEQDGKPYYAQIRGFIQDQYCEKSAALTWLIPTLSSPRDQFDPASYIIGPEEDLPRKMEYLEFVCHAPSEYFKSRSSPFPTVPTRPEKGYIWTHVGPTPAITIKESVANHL

T13: BirA*-FLAG-GATAD1 S102D (human) (UniProt Q8WUU5)
T13 sequence: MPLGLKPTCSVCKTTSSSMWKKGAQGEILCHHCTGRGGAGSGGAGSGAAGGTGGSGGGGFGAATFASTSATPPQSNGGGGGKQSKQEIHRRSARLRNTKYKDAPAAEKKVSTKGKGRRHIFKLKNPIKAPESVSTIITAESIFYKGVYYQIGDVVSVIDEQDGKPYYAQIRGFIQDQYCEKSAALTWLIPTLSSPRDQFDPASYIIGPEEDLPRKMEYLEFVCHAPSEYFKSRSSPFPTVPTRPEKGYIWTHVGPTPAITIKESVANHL

T14: BirA*-FLAG-GATAD1 wild-type (WT) (human) (UniProt Q8WUU5)
T14 sequence: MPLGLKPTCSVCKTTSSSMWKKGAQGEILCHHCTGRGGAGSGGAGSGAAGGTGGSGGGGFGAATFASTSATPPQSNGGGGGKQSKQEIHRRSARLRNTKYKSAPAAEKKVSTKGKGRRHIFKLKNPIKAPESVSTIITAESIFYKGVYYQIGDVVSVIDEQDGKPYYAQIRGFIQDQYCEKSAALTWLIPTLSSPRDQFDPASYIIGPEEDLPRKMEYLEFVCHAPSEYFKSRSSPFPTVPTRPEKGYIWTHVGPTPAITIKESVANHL

T15: BirA*-FLAG-GATAD1 S102P (human) (UniProt Q8WUU5)
T15 sequence: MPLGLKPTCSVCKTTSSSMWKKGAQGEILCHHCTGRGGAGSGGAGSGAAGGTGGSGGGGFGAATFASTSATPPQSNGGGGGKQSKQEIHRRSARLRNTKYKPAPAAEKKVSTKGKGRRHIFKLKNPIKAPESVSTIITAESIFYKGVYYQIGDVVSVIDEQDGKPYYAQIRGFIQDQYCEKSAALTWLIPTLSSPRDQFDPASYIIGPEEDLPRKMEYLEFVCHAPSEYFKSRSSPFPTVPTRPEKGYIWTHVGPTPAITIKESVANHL


Assays:
[1] = target: T1, GATAD1 pS102 peptide, position -5 to alanine (alanine scanning) (human); assay: affinity purification with mass spectrometry; PRISMA alanine scanning: 15 GATAD1-derived peptides on a cellulose membrane in triplicates, pull-down from HEK-293T lysate, label-free quantification, one-way ANOVA; only the target purified
[2] = target: T2, GATAD1 pS102 peptide, position +5 to alanine (alanine scanning) (human); assay: as above
[3] = target: T3, GATAD1 pS102 peptide, position -2 to alanine (alanine scanning) (human); assay: as above
[4] = target: T4, GATAD1 pS102 peptide, position +4 alanine to glycine (alanine scanning) (human); assay: as above
[5] = target: T5, GATAD1 aspartic acid mutant (S102D) peptide on cellulose membrane (alanine scanning) (human); assay: as above
[6] = target: T6, GATAD1 S102P peptide on cellulose membrane (PRISMA) (human); assay: as above
[7] = target: T7, GATAD1 pS102 peptide, position +3 alanine to glycine (alanine scanning) (human); assay: as above
[8] = target: T8, GATAD1 pS102 peptide, position -3 to alanine (alanine scanning) (human); assay: as above
[9] = target: T9, GATAD1 pS102 peptide, position -1 to alanine (alanine scanning) (human); assay: as above
[10] = target: T10, GATAD1 pS102 peptide, proline in position +2 to alanine (alanine scanning) (human); assay: as above
[11] = target: T11, GATAD1 pS102 peptide, position -4 to alanine (alanine scanning) (human); assay: as above
[12] = target: T12, BirA*-FLAG-GATAD1 S102A (human); assay: affinity purification with mass spectrometry; FLAG immunoprecipitation (ANTI-FLAG M2 magnetic beads, 2 h) of BirA*-FLAG-GATAD1 variants from tetracycline-induced Flp-In-293 T-REx lysate (50 mM Tris HCl pH 7.4, 150 mM NaCl, 1 mM EDTA, 1% Triton X-100); control non-induced cells; label-free, triplicates
[13] = target: T13, BirA*-FLAG-GATAD1 S102D (human); assay: as above
[14] = target: T14, BirA*-FLAG-GATAD1 wild-type (WT) (human); assay: as above
[15] = target: T15, BirA*-FLAG-GATAD1 S102P (human); assay: as above

binding [1] | binding [2] | binding [3] | binding [4] | binding [5] | binding [6] | binding [7] | binding [8] | binding [9] | binding [10] | binding [11] | binding [12] | binding [13] | binding [14] | binding [15] | Binder
binds | binds | binds | binds | no binding | no binding | binds | binds | binds | binds | binds | – | – | – | – | 14-3-3 gamma (protein, UniProt P61981 1-247) MVDREQLVQKARLAEQAERYDDMAAAMKNVTELNEPLSNEERNLLSVAYKNVVGARRSSWRVISSIEQKTSADGNEKKIEMVRAYREKIEKELEAVCQDVLSLLDNYLIKNCSETQYESKVFYLKMKGDYYRYLAEVATGEKRATVVESSEKAYSEAHEISKEHMQPTHPIRLGLALNYSVFYYEIQNAPEQACHLAKTAFDDAIAELDTLNEDSYKDSTLIMQLLRDNLTLWTSDQQDDDGGEGNN
– | – | – | – | – | – | – | – | – | – | – | binds | binds | binds | binds | SIN3B (protein, UniProt O75182 1-1162) MAHAGGGSGGSGAGGPAGRGLSGARWGRSGSAGHEKLPVHVEDALTYLDQVKIRFGSDPATYNGFLEIMKEFKSQSIDTPGVIRRVSQLFHEHPDLIVGFNAFLPLGYRIDIPKNGKLNIQSPLTSQENSHNHGDGAEDFKQQVPYKEDKPQVPLESDSVEFNNAISYVNKIKTRFLDHPEIYRSFLEILHTYQKEQLNTRGRPFRGMSEEEVFTEVANLFRGQEDLLSEFGQFLPEAKRSLFTGNGPCEMHSVQKNEHDKTPEHSRKRSRPSLLRPVSAPAKKKMKLRGTKDLSIAAVGKYGTLQEFSFFDKVRRVLKSQEVYENFLRCIALFNQELVSGSELLQLVSPFLGKFPELFAQFKSFLGVKELSFAPPMSDRSGDGISREIDYASCKRIGSSYRALPKTYQQPKCSGRTAICKELDHWTLLQGSWTDDYCMSKFKNTCWIPGYSAGVLNDTWVSFPSWSEDSTFVSSKKTPYEEQLHRCEDERFELDVVLETNLATIRVLESVQKKLSRMAPEDQEKFRLDDSLGGTSEVIQRRAIYRIYGDKAPEIIESLKKNPVTAVPVVLKRLKAKEEEWREAQQGFNKIWREQYEKAYLKSLDHQAVNFKQNDTKALRSKSLLNEIESVYDEHQEQHSEGRSAPSSEPHLIFVYEDRQILEDAAALISYYVKRQPAIQKEDQGTIHQLLHQFVPSLFFSQQLDLGASEESADEDRDSPQGQTTDPSERKKPAPGPHSSPPEEKGAFGDAPATEQPPLPPPAPHKPLDDVYSLFFANNNWYFFLRLHQTLCSRLLKIYRQAQKQLLEYRTEKEREKLLCEGRREKGSDPAMELRLKQPSEVELEEYYPAFLDMVRSLLEGSIDPTQYEDTLREMFTIHAYVGFTMDKLVQNIARQLHHLVSDDVCLKVVELYLNEKKRGAAGGNLSSRCVRAARETSYQWKAERCMADENCFKVMFLQRKGQVIMTIELLDTEEAQTEDPVEVQHLARYVEQYVGTEGASSSPTEGFLLKPVFLQRNLKKFRRRWQSEQARALRGEARSSWKRLVGVESACDVDCRFKLSTHKMVFIVNSEDYMYRRGTLCRAKQVQPLVLLRHHQHFEEWHSRWLEDNVTVEAASLVQDWLMGEEDEDMVPCKTLCETVHVHGLPVTRYRVQYSRRPASP
– | – | – | – | binds | binds | – | – | – | – | – | – | – | – | – | TNPO3 (protein, UniProt Q9Y5L0 1-923) MEGAKPTLQLVYQAVQALYHDPDPSGKERASFWLGELQRSVHAWEISDQLLQIRQDVESCYFAAQTMKMKIQTSFYELPTDSHASLRDSLLTHIQNLKDLSPVIVTQLALAIADLALQMPSWKGCVQTLVEKYSNDVTSLPFLLEILTVLPEEVHSRSLRIGANRRTEIIEDLAFYSSTVVSLLMTCVEKAGTDEKMLMKVFRCLGSWFNLGVLDSNFMANNKLLALLFEVLQQDKTSSNLHEAASDCVCSALYAIENVETNLPLAMQLFQGVLTLETAYHMAVAREDLDKVLNYCRIFTELCETFLEKIVCTPGQGLGDLRTLELLLICAGHPQYEVVEISFNFWYRLGEHLYKTNDEVIHGIFKAYIQRLLHALARHCQLEPDHEGVPEETDDFGEFRMRVSDLVKDLIFLIGSMECFAQLYSTLKEGNPPWEVTEAVLFIMAAIAKSVDPENNPTLVEVLEGVVRLPETVHTAVRYTSIELVGEMSEVVDRNPQFLDPVLGYLMKGLCEKPLASAAAKAIHNICSVCRDHMAQHFNGLLEIARSLDSFLLSPEAAVGLLKGTALVLARLPLDKITECLSELCSVQVMALKKLLSQEPSNGISSDPTVFLDRLAVIFRHTNPIVENGQTHPCQKVIQEIWPVLSETLNKHRADNRIVERCCRCLRFAVRCVGKGSAALLQPLVTQMVNVYHVHQHSCFLYLGSILVDEYGMEEGCRQGLLDMLQALCIPTFQLLEQQNGLQNHPDTVDDLFRLATRFIQRSPVTLLRSQVVIPILQWAIASTTLDHRDANCSVMRFLRDLIHTGVANDHEEDFELRKELIGQVMNQLGQQLVSQLLHTCCFCLPPYTLPDVAEVLWEIMQVDRPTFCRWLENSLKGLPKETTVGAVTVTHKQLTDFHKQVTSAEECKQVCWALRDFTRLFR
